In PMC4642954:
These are yes or no findings as the source states them, for the method shown. Some entries that bind do so weakly or less than the wild type. Tags and fused reporters may be left off the sequences shown.

Target: FLAG-Kirrel3 on CHO cells (UniProt Q8BR86)
Test: cell aggregation assay; CHO cells co-transfected with FLAG-Kirrel3 and GFP, detached with 0.01% trypsin in HMF buffer (1 mM CaCl2, pH 7.4), 100,000 cells a well, nutator 90 min at 37°C, fixed and imaged; aggregation index from GFP fluorescence

binding: binds
B1: FLAG-Kirrel3 on CHO cells (protein, UniProt Q8BR86 22-778)
chain: LQKRGCCLVLGYMAKDKFRRMNEGQVYSFSQQPQDQVVVSGQPVTLLCAIPEYDGFVLWIKDGLALGVGRDLSSYPQYLVVGNHLSGEHHLKILRAELQDDAVYECQAIQAAIRSRPARLTVLVPPDDPIILGGPVISLRAGDPLNLTCHADNAKPAASIIWLRKGEVINGATYSKTLLRDGKRESIVSTLFISPGDVENGQSIVCRATNKAIPGGKETSVTIDIQHPPLVNLSVEPQPVLEDNIVTFHCSAKANPAVTQYRWAKRGHIIKEASGELYRTTVDYTYFSEPVSCEVTNALGSTNLSRTVDVYFGPRMTSEPQSLLVDLGSDAVFSCAWIGNPSLTIVWMKRGSGVVLSNEKTLTLKSVRQEDAGKYVCRAVVPRVGAGEREVTLTVNGPPIISSTQTQHALHGEKGQIKCFIRSTPPPDRIAWSWKENVLESGTSGRYTVETVNTEEGVISTLTISNIVRADFQTIYNCTAWNSFGSDTEIIRLKEQGSEMKSGAGLEAESVPMAVIIGVAVGAGVAFLVLMATIVAFCCARSQRNLKGVVSAKNDIRVEIVHKEPSSGREAEDHTTIKQLMMDRGEFQQDSVLKQLEVLKEEEKEFQNLKDPTNGYYSVNTFKEHHSTPTISLSSCQPDLRPTGKQRVPTGMSFTNIYSTLSGQGRLYDYGQRFVLGMGSSSIELCEREFQRGSLSDSSSFLDTQCDSSVSSSGKQDGYVQFDKASKASASSSHHSQSSSQNSDPSRPLQRRMQTHV
